Data reported in patent US11939311B2, “Acid-labile surfactants” (Promega Corporation, priority 2019, dated 2024).

test system: acetone-precipitated protein pellets from lysed E. coli; test: Proteomic mass spectrometry of solubilized and trypsin-digested E. coli protein pellets; settings: 0.5% surfactant (RapiGest 0.1%), E. coli protein pellet, trypsin digest, LC-MS/MS, MASCOT and Scaffold

Going from `CCCCCCCCCCCC1(C)OCC(COC(=O)NCCCS(=O)(=O)[O-])O1.[Na+]` (stereo not drawn) [JRW-1573, Sodium 3-((((2-methyl-2-undecyl-1,3-dioxolan-4-yl)methoxy)carbonyl)amino)propane-1-sulfonate] to `CCCCCCCCCCCC1(C)OCC(COCCCS(=O)(=O)[O-])O1.[Na+]` (stereo not drawn) [RapiGest], the “Peptide IDs” value falls from 2668 to 2628.

In the case of `CCCCCCCC1(CCCCCCC)OCC(COC(=O)NCCCS(=O)(=O)[O-])O1.[Na+]` (stereo not drawn) [RBK-0170], the “Peptide IDs” value is reported as 2111.

Going from `CCCCCCCCCCCC1(C)OCC(COC(=O)NCCCS(=O)(=O)[O-])O1.[Na+]` (stereo not drawn) [JRW-1573, Sodium 3-((((2-methyl-2-undecyl-1,3-dioxolan-4-yl)methoxy)carbonyl)amino)propane-1-sulfonate] to `CCCCCCCCCCCC1(C)OCC(COCCCS(=O)(=O)[O-])O1.[Na+]` (stereo not drawn) [RapiGest], the “Protein IDs” value falls from 830 to 747.

For `CCCCCCCC1(CCCCCCC)OCC(COC(=O)NCCCS(=O)(=O)[O-])O1.[Na+]` (stereo not drawn) [RBK-0170], the “Protein IDs” value was 882.
